Patent US20250244331A1
Results are given in words; binding and its absence hold for the method and conditions named. Some entries that bind do so weakly or less than the wild type. Each block holds one binder with its values, some of them ahead of it.

Biological target: T1, TK1 target (coating antigen) (human) (UniProt P04183)
T1 sequence (looked up): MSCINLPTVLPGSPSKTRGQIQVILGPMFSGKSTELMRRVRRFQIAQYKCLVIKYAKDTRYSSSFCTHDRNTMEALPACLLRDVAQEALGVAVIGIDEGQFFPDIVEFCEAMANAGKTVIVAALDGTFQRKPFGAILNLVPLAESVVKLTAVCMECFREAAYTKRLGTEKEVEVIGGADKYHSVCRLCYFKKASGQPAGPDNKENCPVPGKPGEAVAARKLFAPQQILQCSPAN
Experiment: phage ELISA, limiting dilution of coated TK1 antigen (0.125 µg-10 µg/well)

binding: binds
B1: SEQ ID NO 33 (scFv)
scFv: AVTLDESGGGLQTPGGGLSLVCKASGFTFSNHGMGWVRQAPGKGLEWVAGINSGAGSYTNYGAAVKGRATISRDNGQSTVRLQLNNLRAEDTGTYFCARSVYGGSISLITDVIDTWGHGTEVTVSSGGGGSGGGGSGGGGSQAALTQPASVSANLGETVKITCSGGANYYGSYYYGWYQQKSPGSAPVTVINDNTKRPSNIPSRFSGSTSGSTGTLTITGVQADDEAVYFCGSYDSSAGYAGIFGAGTTLTVL

binding: binds
B2: SEQ ID NO 42 (scFv)
scFv: AVTLDESGGGLQTPGGGLSLVCKASGFTFSNHGMGWVRQAPGKGLEWVAGINSGAGSYTNYGAAVKGRATISRDNGQSTVRLQLNNLRAEDTATYYCARSVYGGSISLITDVIDTWGHGTEVIVSSGGGGSGGGGSGGGGSQAALTQPSSVSANPGETVKITCSGSYSNYYGWYQQKSPGSAPVTVIYENNNRPSDIPSRFSGSKSGSTNTLTITGVQVEDEAVYFCGGYDDSTDSGIFGAGTTLTVL

binding: binds
B3: SEQ ID NO 39 (scFv)
scFv: AVTLDESGGGLQTPGGALSLVCKASGFSFSRHGMGWVRQAPGKGLEWVASINSGGSYTNYGAAVQGRATIWRDNGQSTVRLQLNNLRAEDTATYYCARDAGCTGGGTCYAYADRIDAWGHGTEVIVSSGGGGSGGGGSGGGGSQAALTLPSSVSVNPGETVKITCSGSSGSYGWYQQKSPGSAPVTVIYYNGKRPSDIPSRFSGSKSGSTGTLTITGVQAEDEAVYFCGSRDSSYDGIFGAGTTLTVL

binding: binds
B4: SEQ ID NO 36 (scFv)
scFv: AVTLDESGGGLQTPGGTVSLVCKASGFTFSDRGMGWMRQAPGKGLEFVAGVDDSGSSRDYAPAVKGRATISRDNGQDILRLQLNNLRAEDTATYYCTRGSVVGFIDAWGHGTEVIVSSGGGGSGGGGSGGGGSQAALTQPASVSASPGETVKITCSGGGRFAGSYYYGWYQQKSPGSAPVTVIYDSTNRPSNIPSRFSGSLSGSTTTLTITGVQADDEAVYFCGSIDSSYVGIFGAGTTLTVL
